# Measured values published in the supplement of paper PMC12819154, “High-throughput peptide-centric local stability assay extends protein–ligand identification to membrane proteins, tissues and bacteria” (Nature Structural & Molecular Biology, 2025).
# The chains behind the UniProt entries cited, without tags or fusion partners. Where a name states a change or a piece, a line headed by the entry shows the natural chain unless it says otherwise.
# UniProt D6REC4: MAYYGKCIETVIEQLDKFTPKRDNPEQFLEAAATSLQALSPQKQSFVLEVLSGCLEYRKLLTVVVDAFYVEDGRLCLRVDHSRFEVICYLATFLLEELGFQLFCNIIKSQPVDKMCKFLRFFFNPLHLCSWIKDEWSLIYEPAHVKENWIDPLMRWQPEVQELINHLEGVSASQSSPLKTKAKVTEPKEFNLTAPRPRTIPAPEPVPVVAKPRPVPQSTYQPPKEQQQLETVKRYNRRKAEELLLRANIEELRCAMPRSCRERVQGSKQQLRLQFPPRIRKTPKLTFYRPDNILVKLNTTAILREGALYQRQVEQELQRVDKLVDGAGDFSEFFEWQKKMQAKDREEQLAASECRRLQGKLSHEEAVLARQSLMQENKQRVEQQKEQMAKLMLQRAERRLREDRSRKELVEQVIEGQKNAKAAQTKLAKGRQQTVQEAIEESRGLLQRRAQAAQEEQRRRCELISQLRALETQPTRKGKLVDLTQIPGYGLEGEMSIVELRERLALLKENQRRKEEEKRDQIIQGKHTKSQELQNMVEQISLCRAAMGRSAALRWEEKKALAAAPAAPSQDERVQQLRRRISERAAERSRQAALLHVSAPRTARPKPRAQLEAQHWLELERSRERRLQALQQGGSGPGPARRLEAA
# UniProt H3BRN8: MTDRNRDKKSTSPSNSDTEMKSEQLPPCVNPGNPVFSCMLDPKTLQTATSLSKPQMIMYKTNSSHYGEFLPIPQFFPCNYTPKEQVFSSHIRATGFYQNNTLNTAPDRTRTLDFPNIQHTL
# UniProt O14508, whole entry: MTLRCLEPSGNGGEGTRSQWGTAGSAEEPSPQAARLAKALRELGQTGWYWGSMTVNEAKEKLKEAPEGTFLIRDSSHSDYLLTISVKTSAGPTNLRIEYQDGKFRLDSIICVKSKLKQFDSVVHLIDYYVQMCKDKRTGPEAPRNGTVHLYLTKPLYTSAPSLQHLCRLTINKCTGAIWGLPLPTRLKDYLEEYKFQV
# UniProt O14832: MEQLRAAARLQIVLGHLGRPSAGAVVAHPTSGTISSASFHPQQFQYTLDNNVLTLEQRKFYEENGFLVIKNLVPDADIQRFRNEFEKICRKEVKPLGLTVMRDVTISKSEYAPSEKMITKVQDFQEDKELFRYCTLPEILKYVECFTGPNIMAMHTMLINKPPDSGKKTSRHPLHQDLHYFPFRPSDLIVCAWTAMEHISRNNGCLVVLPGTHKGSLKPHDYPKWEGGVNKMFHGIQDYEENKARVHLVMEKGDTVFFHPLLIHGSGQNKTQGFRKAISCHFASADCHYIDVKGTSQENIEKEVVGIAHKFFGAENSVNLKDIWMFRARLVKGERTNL
# UniProt O15446, whole entry: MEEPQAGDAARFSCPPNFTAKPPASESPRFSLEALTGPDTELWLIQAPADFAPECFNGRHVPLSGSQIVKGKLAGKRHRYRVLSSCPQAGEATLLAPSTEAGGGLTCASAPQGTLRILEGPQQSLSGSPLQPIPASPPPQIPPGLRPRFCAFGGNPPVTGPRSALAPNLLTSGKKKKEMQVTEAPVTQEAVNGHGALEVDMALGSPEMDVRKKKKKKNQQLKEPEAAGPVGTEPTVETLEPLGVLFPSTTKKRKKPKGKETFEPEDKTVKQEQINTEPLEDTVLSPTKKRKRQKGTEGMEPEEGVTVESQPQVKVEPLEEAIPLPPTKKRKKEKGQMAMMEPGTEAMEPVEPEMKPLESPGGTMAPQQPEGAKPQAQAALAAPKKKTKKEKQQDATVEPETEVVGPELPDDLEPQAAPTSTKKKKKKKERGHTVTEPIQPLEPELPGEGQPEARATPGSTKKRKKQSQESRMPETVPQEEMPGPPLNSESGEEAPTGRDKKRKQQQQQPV
# UniProt O14628: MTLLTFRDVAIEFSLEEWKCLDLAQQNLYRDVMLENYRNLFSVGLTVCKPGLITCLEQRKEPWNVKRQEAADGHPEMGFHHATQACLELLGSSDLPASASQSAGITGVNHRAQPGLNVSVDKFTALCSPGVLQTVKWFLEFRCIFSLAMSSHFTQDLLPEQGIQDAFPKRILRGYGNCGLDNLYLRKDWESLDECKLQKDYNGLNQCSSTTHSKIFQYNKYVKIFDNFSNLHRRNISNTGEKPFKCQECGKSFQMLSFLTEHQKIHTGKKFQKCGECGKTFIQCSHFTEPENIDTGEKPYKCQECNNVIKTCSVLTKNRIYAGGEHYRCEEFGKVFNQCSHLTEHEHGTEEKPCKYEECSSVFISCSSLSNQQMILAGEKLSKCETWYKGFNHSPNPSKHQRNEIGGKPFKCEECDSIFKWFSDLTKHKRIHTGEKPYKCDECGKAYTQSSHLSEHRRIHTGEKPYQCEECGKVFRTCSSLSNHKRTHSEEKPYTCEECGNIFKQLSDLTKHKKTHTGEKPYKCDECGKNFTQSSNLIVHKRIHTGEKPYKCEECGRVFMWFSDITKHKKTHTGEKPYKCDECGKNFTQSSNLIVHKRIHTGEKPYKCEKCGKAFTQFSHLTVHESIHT
# UniProt O15226: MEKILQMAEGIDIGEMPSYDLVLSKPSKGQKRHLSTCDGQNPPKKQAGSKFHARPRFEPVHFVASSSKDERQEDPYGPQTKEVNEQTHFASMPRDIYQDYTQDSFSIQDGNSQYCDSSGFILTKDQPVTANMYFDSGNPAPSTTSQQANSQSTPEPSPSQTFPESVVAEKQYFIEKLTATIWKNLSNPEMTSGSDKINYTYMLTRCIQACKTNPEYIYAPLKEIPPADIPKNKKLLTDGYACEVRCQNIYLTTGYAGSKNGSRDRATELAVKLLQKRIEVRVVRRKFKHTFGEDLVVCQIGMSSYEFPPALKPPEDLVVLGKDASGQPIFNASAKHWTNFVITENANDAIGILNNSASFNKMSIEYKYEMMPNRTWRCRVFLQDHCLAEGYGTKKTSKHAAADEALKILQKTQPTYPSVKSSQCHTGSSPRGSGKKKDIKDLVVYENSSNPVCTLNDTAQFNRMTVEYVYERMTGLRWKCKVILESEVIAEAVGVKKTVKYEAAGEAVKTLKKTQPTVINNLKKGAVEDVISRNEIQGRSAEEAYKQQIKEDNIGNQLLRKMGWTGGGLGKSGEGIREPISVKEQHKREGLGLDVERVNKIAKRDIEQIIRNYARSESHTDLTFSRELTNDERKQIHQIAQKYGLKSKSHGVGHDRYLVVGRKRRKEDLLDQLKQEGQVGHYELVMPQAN
# UniProt O14647: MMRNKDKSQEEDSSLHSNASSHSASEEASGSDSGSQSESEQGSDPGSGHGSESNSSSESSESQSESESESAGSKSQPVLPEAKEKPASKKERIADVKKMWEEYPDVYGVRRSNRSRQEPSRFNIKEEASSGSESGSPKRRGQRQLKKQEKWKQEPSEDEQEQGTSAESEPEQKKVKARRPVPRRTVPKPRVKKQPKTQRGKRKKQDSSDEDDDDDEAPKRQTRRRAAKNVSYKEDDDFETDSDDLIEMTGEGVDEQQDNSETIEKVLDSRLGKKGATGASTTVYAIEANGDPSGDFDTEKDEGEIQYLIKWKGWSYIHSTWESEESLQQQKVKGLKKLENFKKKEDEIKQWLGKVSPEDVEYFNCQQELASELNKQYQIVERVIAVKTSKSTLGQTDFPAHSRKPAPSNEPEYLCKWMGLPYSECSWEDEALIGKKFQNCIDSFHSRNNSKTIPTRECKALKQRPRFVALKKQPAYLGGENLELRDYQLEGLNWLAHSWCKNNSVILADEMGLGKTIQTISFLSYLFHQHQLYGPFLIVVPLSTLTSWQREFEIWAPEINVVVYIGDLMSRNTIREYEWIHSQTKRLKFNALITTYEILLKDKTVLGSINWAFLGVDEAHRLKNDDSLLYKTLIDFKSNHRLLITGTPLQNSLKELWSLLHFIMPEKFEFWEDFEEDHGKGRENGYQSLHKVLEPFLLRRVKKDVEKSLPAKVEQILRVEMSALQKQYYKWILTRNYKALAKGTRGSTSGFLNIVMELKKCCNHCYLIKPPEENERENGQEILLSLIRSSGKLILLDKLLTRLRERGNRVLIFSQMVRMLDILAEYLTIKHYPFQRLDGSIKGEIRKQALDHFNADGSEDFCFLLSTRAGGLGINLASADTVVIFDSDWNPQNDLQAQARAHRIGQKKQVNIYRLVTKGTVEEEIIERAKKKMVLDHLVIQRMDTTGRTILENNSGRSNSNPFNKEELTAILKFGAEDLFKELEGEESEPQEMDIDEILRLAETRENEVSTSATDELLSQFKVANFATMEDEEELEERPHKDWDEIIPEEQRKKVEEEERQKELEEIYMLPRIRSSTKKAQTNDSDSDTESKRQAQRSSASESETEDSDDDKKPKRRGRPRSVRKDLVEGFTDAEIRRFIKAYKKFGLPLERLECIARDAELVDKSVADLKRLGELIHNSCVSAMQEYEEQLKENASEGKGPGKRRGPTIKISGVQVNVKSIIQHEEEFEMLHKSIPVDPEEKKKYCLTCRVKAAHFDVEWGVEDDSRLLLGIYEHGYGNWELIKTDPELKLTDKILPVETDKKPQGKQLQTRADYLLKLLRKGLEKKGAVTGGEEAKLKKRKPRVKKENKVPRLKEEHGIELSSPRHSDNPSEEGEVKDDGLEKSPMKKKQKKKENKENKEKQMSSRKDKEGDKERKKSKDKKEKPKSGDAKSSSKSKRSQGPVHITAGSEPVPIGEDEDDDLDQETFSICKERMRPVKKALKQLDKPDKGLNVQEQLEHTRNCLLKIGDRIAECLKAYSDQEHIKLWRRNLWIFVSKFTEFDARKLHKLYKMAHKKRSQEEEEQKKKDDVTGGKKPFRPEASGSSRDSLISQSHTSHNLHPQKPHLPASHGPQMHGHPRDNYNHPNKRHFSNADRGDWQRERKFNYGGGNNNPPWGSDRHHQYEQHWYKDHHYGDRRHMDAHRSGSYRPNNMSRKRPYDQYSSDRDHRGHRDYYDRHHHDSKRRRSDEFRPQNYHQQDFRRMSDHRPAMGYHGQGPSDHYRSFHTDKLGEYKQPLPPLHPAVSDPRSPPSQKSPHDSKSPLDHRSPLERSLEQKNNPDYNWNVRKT
# UniProt O00178: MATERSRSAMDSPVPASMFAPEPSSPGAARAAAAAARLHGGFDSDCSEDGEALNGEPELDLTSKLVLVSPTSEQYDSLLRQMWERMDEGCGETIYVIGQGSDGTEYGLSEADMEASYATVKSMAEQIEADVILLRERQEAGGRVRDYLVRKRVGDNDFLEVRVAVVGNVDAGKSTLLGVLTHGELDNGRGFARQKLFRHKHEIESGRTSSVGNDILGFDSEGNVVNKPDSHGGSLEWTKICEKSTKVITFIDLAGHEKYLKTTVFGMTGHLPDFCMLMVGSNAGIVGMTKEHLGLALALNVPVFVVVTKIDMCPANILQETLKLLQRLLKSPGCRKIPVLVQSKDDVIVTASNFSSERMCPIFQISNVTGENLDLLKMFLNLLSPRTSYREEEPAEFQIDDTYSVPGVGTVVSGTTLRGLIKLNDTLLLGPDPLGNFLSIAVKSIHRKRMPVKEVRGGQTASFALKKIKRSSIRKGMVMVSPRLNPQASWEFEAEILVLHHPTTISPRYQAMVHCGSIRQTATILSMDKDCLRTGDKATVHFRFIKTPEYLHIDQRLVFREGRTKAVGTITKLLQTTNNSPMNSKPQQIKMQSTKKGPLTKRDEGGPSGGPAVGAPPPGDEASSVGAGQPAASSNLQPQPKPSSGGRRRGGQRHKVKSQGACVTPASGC
# UniProt O14562: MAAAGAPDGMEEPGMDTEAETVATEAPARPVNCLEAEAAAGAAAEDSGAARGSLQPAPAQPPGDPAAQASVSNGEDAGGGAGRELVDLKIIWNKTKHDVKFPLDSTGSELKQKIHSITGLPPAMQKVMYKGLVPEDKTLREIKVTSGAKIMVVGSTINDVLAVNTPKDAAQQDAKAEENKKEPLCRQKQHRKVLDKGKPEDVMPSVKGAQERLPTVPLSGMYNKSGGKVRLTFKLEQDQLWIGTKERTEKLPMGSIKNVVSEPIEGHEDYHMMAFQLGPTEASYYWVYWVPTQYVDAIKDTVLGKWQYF
# The other results are listed elsewhere or left out. Small differences around the control level are noise.
# Compound: Cc1nc(Nc2ncc(C(=O)Nc3c(C)cccc3Cl)s2)cc(N2CCN(CCO)CC2)n1 [dasatinib]
# Assay: log2 fold change of tryptic peptide abundance, ligand vs vehicle (limited proteolysis) (log2 ratio); higher = more trypsin-susceptible (destabilized)
# Conditions: ligand concentration: 5 uM; sample: K562 cleared lysate
row,Target,log2 fold change
1,"UniProt D6REC4 (peptide sequence: QRVEQQK, peptide start residue: 379)",-0.207
2,"UniProt H3BRN8 (peptide sequence: STSPSNSDTEMK, peptide start residue: 10)",0.227
3,"SOCS2 (peptide sequence: EAPEGTFLIR, peptide start residue: 64) (UniProt O14508)",-0.0891
4,"PHYH (peptide sequence: NLVPDADIQR, peptide start residue: 71) (UniProt O14832)",0.045
5,"CD3EAP (peptide sequence: GKETFEPEDKTVK, peptide start residue: 258) (UniProt O15446)",-0.7
6,"UniProt O14628 (peptide sequence: TFIQCSHFTEPENIDTGEKPYK, peptide start residue: 280)",-0.383
7,"NKRF (peptide sequence: RDIEQIIR, peptide start residue: 604) (UniProt O15226)",-1.21
8,"CHD2 (peptide sequence: FTEFDAR, peptide start residue: 1485) (UniProt O14647)",0.27
9,"GTPBP1 (peptide sequence: HKHEIESGR, peptide start residue: 199) (UniProt O00178)",-0.209
10,"UBFD1 (peptide sequence: LPTVPLSGMYNK, peptide start residue: 213) (UniProt O14562)",0.125
11,"UniProt O14972 (peptide sequence: SVELQLVR, peptide start residue: 208)",-0.136

# Looked up one by one from the list above (2):
row,Target,log2 fold change
2,"UniProt H3BRN8 (peptide sequence: STSPSNSDTEMK, peptide start residue: 10)",0.227
5,"CD3EAP (peptide sequence: GKETFEPEDKTVK, peptide start residue: 258) (UniProt O15446)",-0.7
